According to patent US20110243854A1, “Methods and systems for identifying modulators of longevity” (The Regents of the University of California, priority 2007, published 2011):

Assay: Body weight of cAMP analog-fed flies
Assay type: in vivo, Drosophila melanogaster
Conditions: male and female w^1118 flies fed 1 μM and 10 μM, versus controls

CCCC(=O)Nc1ncnc2c1ncn2[C@@H]1O[C@@H]2COP(=O)(O)O[C@H]2[C@H]1OC(=O)CCC [db-cAMP, dibutyryl-cAMP]
body weight: remained the same as controls | body weight (listed as dibutyryl—cAMP): did not affect body weight
